Test [1] addresses T1, FOXP1 (chicken (endogenous in embryonic tissue)) (UniProt Q58NQ4).
T1 sequence: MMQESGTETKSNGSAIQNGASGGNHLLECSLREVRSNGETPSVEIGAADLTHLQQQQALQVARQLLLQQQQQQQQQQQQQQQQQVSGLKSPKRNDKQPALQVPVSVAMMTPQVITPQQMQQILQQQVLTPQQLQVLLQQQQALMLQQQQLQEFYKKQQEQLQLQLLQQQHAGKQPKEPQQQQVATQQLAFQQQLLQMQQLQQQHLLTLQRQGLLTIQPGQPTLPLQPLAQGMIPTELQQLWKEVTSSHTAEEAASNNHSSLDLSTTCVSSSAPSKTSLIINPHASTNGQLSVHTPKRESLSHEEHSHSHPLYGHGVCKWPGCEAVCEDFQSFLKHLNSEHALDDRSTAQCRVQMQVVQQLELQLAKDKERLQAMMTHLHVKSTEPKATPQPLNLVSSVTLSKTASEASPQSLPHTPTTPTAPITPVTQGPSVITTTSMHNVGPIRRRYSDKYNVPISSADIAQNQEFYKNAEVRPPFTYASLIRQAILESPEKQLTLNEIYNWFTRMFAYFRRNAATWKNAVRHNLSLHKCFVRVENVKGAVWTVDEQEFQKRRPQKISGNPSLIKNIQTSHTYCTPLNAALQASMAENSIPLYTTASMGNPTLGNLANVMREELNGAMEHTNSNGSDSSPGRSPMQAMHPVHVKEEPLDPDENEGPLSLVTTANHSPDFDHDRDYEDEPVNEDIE
Kind of test: affinity purification with mass spectrometry; RIME: HH29 chicken neural crest-, somite- and limb-derived tissue cross-linked with 2 mM DSG (40 min) and 1% formaldehyde (13 min), nuclei lysed and sonicated, incubated overnight at 4 °C with anti-SOX9 or anti-FOXP1 and protein A/G Dynabeads, washed with RIPA and AMBIC, LC-MS/MS; quadruplicates; differential abundance across embryonic origins.

Chains of the proteins cited; added tags and fusions are not shown.
UniProt P48434: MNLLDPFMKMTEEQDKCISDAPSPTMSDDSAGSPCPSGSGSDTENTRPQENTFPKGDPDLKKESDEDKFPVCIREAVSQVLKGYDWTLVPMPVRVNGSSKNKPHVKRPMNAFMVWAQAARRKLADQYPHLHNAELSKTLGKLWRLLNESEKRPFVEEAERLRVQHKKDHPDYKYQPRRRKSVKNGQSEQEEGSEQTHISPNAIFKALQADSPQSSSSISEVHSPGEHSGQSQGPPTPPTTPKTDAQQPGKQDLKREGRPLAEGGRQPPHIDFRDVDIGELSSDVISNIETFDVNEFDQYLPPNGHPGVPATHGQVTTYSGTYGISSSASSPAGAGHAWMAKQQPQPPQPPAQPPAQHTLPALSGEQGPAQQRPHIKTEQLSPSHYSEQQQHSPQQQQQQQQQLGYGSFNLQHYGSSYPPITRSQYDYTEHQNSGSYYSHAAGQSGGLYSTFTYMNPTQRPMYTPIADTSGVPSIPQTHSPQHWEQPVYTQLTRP
UniProt A0A1D5P7L2: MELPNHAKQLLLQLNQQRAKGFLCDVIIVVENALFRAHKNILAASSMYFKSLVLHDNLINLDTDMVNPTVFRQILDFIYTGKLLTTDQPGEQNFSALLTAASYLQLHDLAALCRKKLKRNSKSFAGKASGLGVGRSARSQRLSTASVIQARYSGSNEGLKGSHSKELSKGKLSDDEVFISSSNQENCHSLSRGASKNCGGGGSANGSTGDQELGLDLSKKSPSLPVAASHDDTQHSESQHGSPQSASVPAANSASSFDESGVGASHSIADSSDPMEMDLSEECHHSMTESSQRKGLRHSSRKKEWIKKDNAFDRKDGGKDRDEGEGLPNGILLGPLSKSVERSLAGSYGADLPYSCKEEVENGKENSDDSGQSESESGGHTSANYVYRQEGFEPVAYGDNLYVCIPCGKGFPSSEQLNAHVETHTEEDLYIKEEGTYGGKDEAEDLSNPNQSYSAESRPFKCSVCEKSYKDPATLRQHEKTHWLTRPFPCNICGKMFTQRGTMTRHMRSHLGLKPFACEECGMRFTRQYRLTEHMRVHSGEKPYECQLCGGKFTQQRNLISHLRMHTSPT
UniProt A0A8V0Y4A6: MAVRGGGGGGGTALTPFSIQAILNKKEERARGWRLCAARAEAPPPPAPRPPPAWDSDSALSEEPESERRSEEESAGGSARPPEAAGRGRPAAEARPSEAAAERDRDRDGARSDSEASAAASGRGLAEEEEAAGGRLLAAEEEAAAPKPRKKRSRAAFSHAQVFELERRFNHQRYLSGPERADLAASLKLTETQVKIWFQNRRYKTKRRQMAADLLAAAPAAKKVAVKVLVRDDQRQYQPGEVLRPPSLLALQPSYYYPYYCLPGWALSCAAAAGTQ

Test [2] deals with SOX9 (chicken (endogenous in embryonic tissue)) (UniProt P48434). The test is described as above.

Results are given in words; binding and its absence hold for the method and conditions named. In cells and extracts the contact can be indirect. A yes stands for co-enrichment or nearness to the bait. Other partners may have been found.

As for HIC2 (from UniProt A0A1D5P7L2 1-570), the binding entry in test [1] is reported as “binds”. Turning to NKX3-2 (from UniProt A0A8V0Y4A6 1-276), the binding entry in test [2] is reported as “binds”.

B1: HIC1 (protein, UniProt Q90850 1-676)
chain: APGARPAASRERGHKSREERCGERGAAAGRRARGAMLEAMEVPSHSRQLLLQLNTQRTKGFLCDVIIVVQNALFRAHKNILAASSAYLKSLVVHDNLLNLDHEMVSPGIFRLILDFIYTGRLGECEPGGEQSLGAVLAAASYLQIPGLVALCKKKLKRSGKYCHLRGGYAPYKLGRGLRATTPVIQACYSGTPRPVDLQPVEPAAPLNTQCGELYASASQGTPLHPHGLCPPERHCSPPCGLDLSKKSPTGPSAQLLPTDRLLPAEPREPSLPPRHDSPPVSGGLLAGHPAAYKDSPPGGEPGGHPHATDPFRSTPPCAEPPLPRGDGRELMYRWMKHEPLGPYLDEGEAEKELEREEKAESPPAAPQPRYPSVESNDLEPDNSTSEETGSSEGPSPGDALDRYCNHLGYEPESLGDNLYVCIPCGKGFPSSEQLNAHVEAHNEEELYHKAAAEQAVPFLDKGGAGLGDILRPYRCSSCDKSYKDPATLRQHEKTHWLTRPYPCTICGKKFTQRGTMTRHMRSHLGLKPFACDACGMRFTRQYRLTEHMRIHSGEKPYECQVCGGKFAQQRNLISHMKMHAAGPDGKAKLDFPDSVYAMARLTADQLGLKQEKAAELLSHTSHFLSDPKAMESLYPLAKFTAEHLGLSQDKAAEVLAQAPHLHADAARTIERYSPP
Turning to B1, the binding result in test [1] is listed as “binds”.

The values above are taken from article PMC11880379.
